This is one part of the list.
B1: il10ra_site1_sap_26_mot_HHH_b2_03328_af2_000000127_0001_1_19_H_._HHH_b2_02567_0001_0000300027_0000001_0_0001 (protein)
chain: SSSSSAEEELEELLEELEQLLREGDRERFLEVLQRALQLAYQASDEEVLRRLWELLEELDSSSSS
B2: il10ra_site1_sap_19_mot_HHH_b1_03314_af2_000000278_0001_42_55_H_._HHH_b1_02703_af2_0001_0000600018_0000001_0_0001 (protein)
chain: SSSSDAEEKVKLTLRFIRWLLEEGDKRAARHFARVALELAERIGDPELEREVEELLELAENSSSS
B3: il10ra_site1_normal_mot_HHH_b1_05056_000000217_0001_1_20_H_._876462e7a17a420be942191b58edf4ab_0001_1_0001_0000600019_0000001_0 (protein)
chain: TELQEILRLVFELGDPDILQALWKLVKRLAKGDPEAEELLKEILELLREGNREEVHELAKEILEK
B4: il10ra_site1_sap_25_mot_HHH_b1_03900_000000129_0001_1_16_H_._HHH_b1_05904_0001_0000500045_0000002_0_0001_af2pred_0001 (protein)
chain: SSSSAERAAEIAVRAAEWAIEAGDPEIAEQALRALKFLAEELNDPELRELVEELEQLLRELSSSS
B5: il10ra_site1_normal_mot_HHH_b1_06914_000000280_0001_1_18_H_._HHH_b1_06660_0001_0000200027_0000001_0 (protein)
chain: SSSSTHEVYELSRRAAELIANGNLEEAEEVLREAEELARQNNNEVLLFNIRLLLRQIEQLLSSSS
B6: il10ra_site1_sap_21_mot_HHH_b1_01592_af2_000000239_0001_40_54_H_._HHH_b2_03255_af2_0001_0001100028_0000001_0_0001 (protein)
chain: SSSSDEQEAIRLLHELMEAYKKGDEELIEELVEELEELARKLNSASARLLVRFAKELLEELSSSS
B7: il10ra_site1_sap_16_mot_HHH_b1_08411_af2_000000053_0001_1_20_H_._HHH_b2_04044_0001_0000200014_0000001_1_0001 (protein)
chain: SSSSDEEELEKLQEEIERLIEEGDPERAAKLLQELLRIAFQLSDEEIMRLIMELAELIRNASSSS
B8: il10ra_site1_sap_23_mot_2c1a291787c6f40772924d4e9068d803_0001_af2_000000187_0001_34_48_H_._HHH_b2_07452_0001_0000300038_0000001_0_0001_af2pred_0001 (protein)
chain: SSSSDDKELAELALRMVKWLEKAGDEEALKRLLEAAAQIAELANDEEILKELQEILEELESSSSS
B9: il10ra_site1_sap_23_mot_HHH_b2_07144_000000289_0001_1_18_H_._HHH_b1_01684_0001_0000400046_0000001_0_0001_af2pred_0001 (protein)
chain: SSSSDAEEFVRLTLRFVKFLLEQGDKEAAKRFLEAAKRLVKLEGNEELEEKLEELEEEVNSSSSS
B10: il10ra_site1_sap_27_mot_HHH_b1_04327_000000247_0001_1_20_H_._HHH_b1_04639_af2_0001_0000300033_0000001_0_0001 (protein)
chain: SSSSSDEEEREEIKELLEEAEQIEDPRRLSKLLQEATRIAIQLQDKELLREIWEVVKKLSSSSSS
B11: il10ra_site1_sap_9_mot_47763b419dcba15278d0659274068abf_0001_af2_000000068_0001_35_48_H_._a3670c5829215c526ff869221da29923_0001_0001_0000200005_0000002_0_0001 (protein)
chain: SSSSSEREEVYELIREALELRANGDPEEAEEVLERALKLAEELGSFVFRFAARLALEDIKSSSSS
B12: il10ra_site1_normal_mot_HHH_b2_00943_af2_000000149_0001_1_17_H_._HHH_b2_02724_af2_0001_0000500018_0000002_0 (protein)
chain: SSSSSEEFEELVEEAQRLAKELGDENVLFLIRQVEKAYRRAGDEWAKEALESLLKELEELGSSSS
B13: il10ra_site1_sap_17_mot_ems_3hC_416_0001_000000048_0001_1_19_H_._HHH_b2_07787_af2_0001_0000100005_0000001_1_0001 (protein)
chain: DEELLEEILKKLKQVPNPRVRELAEEAEELLERGDPYKAAQVLLRAIAWAGDPELLQLLWEAVKR
B14: il10ra_site1_normal_mot_HHH_b1_03900_000000129_0001_1_16_H_._HHH_b1_06727_af2_0001_0000800013_0000002_0 (protein)
chain: SSSSSEEEEREAYELIKRVARLLIRGDPERAEELFKELEKLLEELGDPALERALEILERALSSSS
B15: il10ra_site1_sap_22_mot_HHH_b2_00475_000000002_0001_44_57_H_._HHH_b2_03280_0001_0000100002_0000002_1_0001 (protein)
chain: SSSSDRQEIAKLLMEALQLLFNGNPEEAEEVIREARELAEELGDEALEEMLEFIREVIERASSSS
B16: il10ra_site1_sap_15_mot_HHH_b2_03220_af2_000000223_0001_23_40_H_._7f2fc9564206058543fe500fefea0e08_0001_0001_0000600015_0000001_0_0001 (protein)
chain: SSSSDEERARELVEAALRLARQAPDEETLRFMLMAAEMLAKETNDPELEELAKEIEELRESSSSS
B17: il10ra_site1_sap_24_mot_HHH_b1_03763_000000209_0001_22_38_H_._HHH_b2_08112_0001_0000100003_0000001_0_0001 (protein)
chain: SSSSSDELFRLVEEAIERASELRRNGNPEEAERLLEEILELAEELGNRIVIFAIRHLLEAISSSS
B18: il10ra_site1_sap_19_mot_HHH_b1_05704_af2_000000048_0001_1_18_H_._HHH_b2_06557_0001_0000100008_0000001_0_0001_af2pred_0001 (protein)
chain: SSSSDEEREELQELLERIHELLKEGNKEEAEKLIEEAREIAEELNNELARVLIEFLLELLNSSSS
B19: il10ra_site1_normal_mot_8756ee2cf497b5429c717dfc0c0bcfd6_0001_000000186_0001_1_13_H_._HHH_b2_03261_0001_0000300012_0000001_0_af2pred_0001 (protein)
chain: SSSSSSSELAEEVLRLIRRLAEVDEEEREELLERAEKIAEEINNLVLEVQLEFAKKAFSSSSSSS
B20: il10ra_site1_sap_20_mot_39a7b8d0c4c3fc04bafbda6ce6101d3a_0001_1_af2_000000014_0001_34_48_H_._HHH_b2_04505_0001_0000500012_0000002_0_0001_af2pred_0001 (protein)
chain: SSSSSSSDEERVRELLEEAEKIDDEEEFVYVLIRAWAIANQSNNEELRREVEEVAQKLLSSSSSS
B21: il10ra_site1_sap_15_mot_HHH_b1_06804_000000054_0001_40_54_H_._HHH_b2_05376_0001_0000100004_0000001_0_0001 (protein)
chain: SSSSDVEQRVSELLFEAIRLAANGNPEEAEKLVEEAERLAEENNDPELERYVEIAKRFIKNSSSS
B22: il10ra_site1_sap_15_mot_HHH_b1_02080_af2_000000254_0001_23_39_H_._HHH_b1_07440_0001_0000200016_0000001_1_0001_af2pred_0001 (protein)
chain: SSSSSQDELEIRALMRLARAALEQGNPKAAEILLRWALKLAEEINNEELRKEIEELLREVGSSSS
B23: il10ra_site1_normal_mot_HHH_b1_08411_af2_000000053_0001_1_20_H_._HHH_b2_02982_0001_0000200029_0000002_0 (protein)
chain: SSSSQELFELTREAIKQAIELFREGNREEAEELLEEVLKEVREAGNVALEFSLEHLLRALSSSSS
B24: il10ra_site1_sap_18_mot_HHH_b1_06789_af2_000000041_0001_1_20_H_._HHH_b1_02475_0001_0000600043_0000001_0_0001_af2pred_0001 (protein)
chain: SSSSDEEEKEAALAFSKLDLRALELGDRELVKRLFQLLARFWMEGDPRYLEEAEELVEEVGSSSS
B25: il10ra_site1_normal_mot_HHH_b1_02062_000000185_0001_1_20_H_._HHH_b1_05438_0001_0000100002_0000001_0_af2pred_0001 (protein)
chain: SSSSTEESEEIYRLSREAAELYREGNPEEARKLLEEAEEIAEEAGNLNLLAVIEYLLEIINSSSS
B26: il10ra_site1_sap_14_mot_HHH_b1_00952_af2_000000199_0001_44_57_H_._cd66f5cefdcef76786f86471523878d9_0001_0001_0000400011_0000001_0_0001 (protein)
chain: SSSSDREEEESRELLEELEELLKEGDRERFIKLAQEIVRAAYEINDEELLRAVWELVHKFASSSS
B27: il10ra_site1_normal_mot_HHH_b2_02337_000000026_0001_38_52_H_._HHH_b1_04115_0001_0000100005_0000002_0 (protein)
chain: SSSSDREEEVERLIEEAERLLEEGNPEEASRVLQEAVRLAFESRDPELLRLIWELVQRIFNSSSS
B28: il10ra_site1_sap_29_mot_39a7b8d0c4c3fc04bafbda6ce6101d3a_0001_1_af2_000000014_0001_34_48_H_._HHH_b1_06982_af2_0001_0000200007_0000001_0_0001 (protein)
chain: SSSSSSESAEKSVRHFLRAAQHIDDEEYRRLTLWFAEADARAINDPELEELVREILEELLSSSSS
B29: il10ra_site1_normal_mot_22aa8d8ad8dce7f663ea8fa348a52261_0001_000000025_0001_37_51_H_._d0e8961964c3861271c3cee42b2d364a_0001_1_0001_0000300017_0000001_0 (protein)
chain: DEEKEELLIELIAEALGVPPELVEEAIKQLEKQNGDPREALRAIAAAARASAPPELRKQLEEALK
B30: il10ra_site1_normal_mot_HHH_b1_05326_000000242_0001_1_20_H_._HHH_b1_05676_af2_0001_0000200015_0000001_0 (protein)
chain: SSSSDEKQKVLELLREAFRLALRGDDERARELLEEAEKLAEELGDERLRQMIEALLQSLNSSSSS
B31: il10ra_site1_normal_mot_HHH_b2_00984_000000042_0001_1_20_H_._HHH_b2_06427_0001_0000100001_0000002_0 (protein)
chain: SSSSSSDVEEEVEELLEEAKQIDDWRRLSRLLLEATQLAIRANDPELLQEVWRVIKELSSSSSSS
B32: il10ra_site1_sap_21_mot_HHH_b1_08133_000000195_0001_1_19_H_._HHH_b2_02138_0001_0000100003_0000001_0_0001 (protein)
chain: SSSSSSDAVREAQELLREAAQIEDEEERREIVEEALELAEKAGNKILELSIRYLLEKLSSSSSSS
B33: il10ra_site1_normal_mot_HHH_b2_00984_000000042_0001_1_20_H_._HHH_b2_06737_0001_0000100013_0000001_0 (protein)
chain: SSSSSEDEERVEELLEEAKEIEDEREANEVLTEALQLAIQSNDPELLQEVWRVIKELAKRSSSSS
B34: il10ra_site1_sap_19_mot_HHH_b2_08050_000000089_0001_21_37_H_._HHH_b1_02869_0001_0000200020_0000003_0_0001 (protein)
chain: SSSSSTQEVYELLEELVKLIHNNDQEEAERLIEEIERLIEELNNPNMRMILEFLERALKRSSSSS
B35: il10ra_site1_sap_18_mot_HHH_b2_07569_000000265_0001_38_56_H_._HHH_b1_02823_0001_0000100002_0000002_0_0001_af2pred_dldesign_0_af2pred (protein)
chain: SSSSSPETVEIYRLIKEAAELLEKGDYEKVRELLEEAEKLAKKAKDELALAAIAALRRRLGSSSS
B36: il10ra_site1_normal_mot_HHH_b2_05984_000000040_0001_38_52_H_._HHH_b1_06146_0001_0000100001_0000002_0 (protein)
chain: SSSSSSDVKERVEELEEEIEKSDDPQERRELLEEVVELALKYQDLEAAEIATHLVRRLSSSSSSS
B37: il10ra_site1_normal_mot_HHH_b2_08144_af2_000000046_0001_38_52_H_._HHH_b1_03926_af2_0001_0000200013_0000001_1_af2pred_dldesign_0_af2pred (protein)
chain: SSSSSKTEEIIRLLTEGLELYAEGKPEEAKKLLEKALKLAEEINDPILADTARYALSQVESSSSS

biological target: il10ra, Q13651; assay: yeast display titration

Apparent Kd, inactive:
B1 no binding seen, B2 no binding seen, B3 no binding seen, B4 no binding seen, B5 no binding seen, B6 no binding seen, B7 no binding seen, B8 no binding seen, B9 no binding seen, B10 no binding seen, B11 no binding seen, B12 no binding seen, B13 no binding seen, B14 no binding seen, B15 no binding seen, B16 no binding seen, B17 no binding seen, B18 no binding seen, B19 no binding seen, B20 no binding seen, B21 no binding seen, B22 no binding seen, B23 no binding seen, B24 no binding seen, B25 no binding seen, B26 no binding seen, B27 no binding seen, B28 no binding seen, B29 no binding seen, B30 no binding seen, B31 no binding seen, B32 no binding seen, B33 no binding seen, B34 no binding seen, B35 no binding seen, B36 no binding seen, B37 no binding seen
